The text below walks through data of PMC12670160, “A drug-repurposing screen of FDA- and EMA-approved drugs identifies two NF-κB inhibitors active against eumycetoma” (Journal of Antimicrobial Chemotherapy, 2025).

Counter-ions that a name gives are not always drawn. The campaign covered roughly 5,300 compounds. About 130 (2.5%) showed an effect of 50% or more. Some of the results follow.

In the assay the test system is M. mycetomatis strain mm55. Conditions: primary screen, metabolic activity vs growth control; 96 h, 2 µM; inhibitor.
Turning to `CNCCc1ccc(O)c(O)c1` [ONC0001999, nmethyldopaminehcl], the “% viability” value is recorded as 94.89%.
In the case of `CCOc1ccc(-n2c(C(C)N(Cc3cccnc3)C(=O)Cc3ccc(OC(F)(F)F)cc3)nc3ncccc3c2=O)cc1` (stereo not drawn) [ONC0001754, amg487], the “% viability” value turned out to be 68.56%.
On to `COC(=O)C[C@](O)(CCCC(C)(C)O)C(=O)O[C@@H]1C(OC)=C[C@]23CCCN2CCc2cc4c(cc2[C@H]13)OCO4` [ONC0001577, homoharringtonine], for which the “% viability” value was 108.7%.
`O[C@H]1[C@H](O)[C@@H](O)[C@H](O)[C@@H](O)[C@H]1O` [ONC0000427, inositol]: the “% viability” value came to 57.73%.
On to `CCCN(CCC)CCc1cccc2c1CC(=O)N2` [ONC0004519, ropinirole hcl], for which the “% viability” value was 61.14%.
For the compound `C=C(C)[C@@H]1CC[C@]2(CO)CC[C@]3(C)[C@H](CC[C@@H]4[C@@]5(C)CC[C@H](O)C(C)(C)[C@@H]5CC[C@]43C)[C@@H]12` [ONC0003471, betulin], the “% viability” value was 84.11%.
In the case of `COc1cccc2c1C(=O)c1c(O)c3c(c(O)c1C2=O)C[C@@](O)(C(=O)CO)C[C@@H]3O[C@H]1C[C@H](N)[C@@H](O)[C@H](C)O1` [ONC0004636, epirubicin hydrochloride] it was 92.65%; in that of `CCOCOC[C@H](C[C@H](C)C(=O)NO)NC(=O)c1ccc(Oc2ccccc2)cc1` [ONC0001635, ono4817], 89.13%; in that of `CC(C)Nc1cccnc1N1CCN(C(=O)c2cc3cc(NS(C)(=O)=O)ccc3[nH]2)CC1` [ONC0001146, delavirdine mesylate], 93.77%.
With `COC(=O)C1=CO[C@@H](O[C@@H]2O[C@H](CO)[C@@H](O)[C@H](O)[C@H]2O)[C@@H]2C(CO)=CC[C@H]12` [ONC0004967, geniposide], the “% viability” value is recorded as 114.1%.
As to `OC(CN1CCNCC1)Cn1c2ccc(Br)cc2c2cc(Br)ccc21` (stereo not drawn) [ONC0000234, baxchannelblocker], the “% viability” value is 89.77%.
As for `COc1ccc(Cn2ccc3ccc(C(=O)NO)cc32)cc1` [ONC0004796, pci34051], the “% viability” value is 84.92%.
In the case of `C#Cc1cccc(Nc2ncnc3cc(OCCOC)c(OCCOC)cc23)c1` [ONC0004502, erlotinibosi744], the “% viability” value was 72.87%.
Take `N[C@@H](C(=O)N[C@@H]1C(=O)N2C(C(=O)O)=C(Cl)CC[C@H]12)c1ccccc1` [ONC0004194, loracarbef]: the “% viability” value stood at 85.4%.
Turning to `COc1ccccc1OC(=O)CNC(=O)Cc1ccc(C(=O)c2ccc(C)cc2)n1C` [ONC0005319, amtolmetinguacil], the “% viability” value came to 119.3%.
In the case of `Cc1nnc(C(C)C)n1[C@@H]1C[C@H]2CC[C@@H](C1)N2CC[C@H](NC(=O)C1CCC(F)(F)CC1)c1ccccc1` [ONC0004641, maraviroc], the “% viability” value amounted to 78.39%.
The same measure for `NC(=O)c1cnc(N[C@@H]2CCCC[C@@H]2N)nc1Nc1cccc(-n2nccn2)c1` [ONC0004537, prt062607 p50515 prt2607 biib057 hcl]: 79.25%; for `CCC1OC(=O)CC(O)C(C)C(OC2OC(C)CC(N(C)C)C2O)C(CC=O)CC(C)C(=O)/C=C/C2(C)OC2C1C` (stereo not drawn) [ONC0003863, rosamicin]: 58.59%; for `CN[C@@H]1[C@H](O)[C@H](NC)[C@H]2O[C@@]3(O)C(=O)C[C@@H](C)O[C@H]3O[C@@H]2[C@H]1O` [ONC0000602, spectinomycin hydrochloride]: 88.5%.
Turning to `COCC(O)Cn1ccnc1[N+](=O)[O-]` (stereo not drawn) [ONC0005623, misonidazole], the “% viability” value amounted to 105.3%.
Regarding `NS(=O)(=O)c1cc2c(cc1Cl)NC(C(Cl)Cl)NS2(=O)=O` (stereo not drawn) [ONC0003174, trichlormethiazide], the “% viability” value stood at 103.4%.
With `CCCCCCCCCCCCCCCCCCCCCCO` [ONC0004037, docosanol], the “% viability” value was found to be 81.2%.
On to `O=C(O)C=C1NN(Cc2nc3cc(C(F)(F)F)ccc3s2)C(=O)c2ccccc21` [ONC0005526, zopolrestat], for which the “% viability” value was found to be 123.5%.
For the compound `CC(C)C[C@@H](C(=O)N[C@H](C(=O)OC1CCCC1)c1ccccc1)[C@H](O)C(=O)NO` [ONC0000136, tosedostat], the “% viability” value is 92.23%.
Take `COc1ccc(O)cc1` [ONC0003179, mequinol]: the “% viability” value is given as 104.8%.
As to `CCCCCCOC(=O)NC(=N)c1ccc(NCc2nc3cc(C(=O)N(CCC(=O)OCC)c4ccccn4)ccc3n2C)cc1` [ONC0004616, bibr1048 dabigatran], the “% viability” value worked out at 80.23%.
Take `NCCCC(=O)O` [ONC0005483, gammaaminobutyric acid hydrochloride]: the “% viability” value worked out at 110.7%.
For the compound `Cc1ccc(-c2nn(C(C)(C)C)c3ncnc(N)c23)cc1` [ONC0001717, pp1], the “% viability” value turned out to be 54.48%.
The same measure for `O=C(Nc1nc2ccc(NC(=O)C34C[C@H]5C[C@@H](C3)C[C@@H](C4)C5)cc2s1)c1ccccc1` [ONC0000884, nvp 231]: 64.19%.
Turning to `Cc1c(-c2ccccc2)oc2c(C(=O)OCCN3CCCCC3)cccc2c1=O` [ONC0004488, flavoxate hcl], the “% viability” value was found to be 125.4%.
For the compound `C[C@H](NCc1ccc(OCc2ccccc2F)cc1)C(N)=O` [ONC0001748, priralfinamide], the “% viability” value is 144.1%.
With `CC1(C)O[C@H]2CC(=O)OC[C@]23[C@H]2CC[C@@]4(C)[C@H](c5ccoc5)OC(=O)[C@H]5O[C@]54[C@]2(C)C(=O)C[C@@H]13` [ONC0004949, limonin], the “% viability” value came out at 102.1%.
Turning to `CC=CC=CC(=O)O` [ONC0003780, sorbicacid], the “% viability” value is on record as 123.4%.
In the case of `Nc1nc(-c2nn(Cc3ccccc3F)c3ncccc23)ncc1C1CC1` [ONC0001932, bay412272] it was 94.25%; in that of `CC/C(=C(\c1ccc(O)cc1)c1ccc(OCCN(C)C)cc1)c1ccccc1` [ONC0002197, afimoxifene], 79.17%; in that of `NC(=O)c1cccc(-c2cc(Nc3ccc(OC(F)(F)F)cc3)ncn2)c1` [ONC0000189, gnf2], 60.6%.
In the case of `Cc1cc(C)c(CNC(=O)c2cc(-c3ccc(CN4CCOCC4)cc3)cc3c2cnn3C2CCCC2)c(=O)[nH]1` [ONC0004363, epz005687], the “% viability” value is reported as 110.8%.
`C[C@@H]1CC2C3CCC4=CC(=O)C=C[C@]4(C)[C@@]3(F)[C@@H](O)C[C@]2(C)[C@@]1(O)C(=O)CO` (stereo partly drawn) [ONC0000416, dexamethasone]: the “% viability” value is 62.67%.
In the case of `CN1CCN(c2cc(-c3ccccc3)nc(N)n2)CC1` [ONC0000245, vuf10460] it was 72.62%; in that of `Cc1ccc2c(c1)c1c3n2CCNC3CCC1` (stereo not drawn) [ONC0000187, pirlindole], 65.77%; in that of `CCN(CC)CCOC(=O)c1cc(Cl)c(N)cc1OC` [ONC0001595, sdz205557], 77.83%.
Take `C=C1/C(=C\C=C2/CCC[C@]3(C)[C@@H]([C@H](C)CCCC(C)C)CC[C@@H]23)C[C@@H](O)C[C@@H]1O` [ONC0004827, alfacalcidol]: the “% viability” value is listed as 97.64%.
For `O=C(O)CCNC(=O)c1ccccc1` [ONC0004244, betamipron], the “% viability” value is given as 76.36%.
Turning to `O=C(N[C@H](CO)[C@H](O)c1ccc([N+](=O)[O-])cc1)C(Cl)Cl` [ONC0000271, chloramphenicol], the “% viability” value stood at 92.15%.
Take `CO[C@H]1/C=C\C=C(/C)C(=O)NC2=CC(=O)C(NCCN(C)C)=C(C[C@@H](C)C[C@H](OC)[C@H](O)[C@@H](C)/C=C(\C)[C@@H]1OC(N)=O)C2=O` [ONC0004661, 17dmag hcl alvespimycin]: the “% viability” value is listed as 79.66%.
Turning to `C[n+]1c2cc(N)ccc2cc2ccc(N)cc21` [ONC0003217, acriflavinium hydrochloride], the “% viability” value worked out at 98.01%.
With `CC1=NN(c2ccccc2)C(=O)C1` [ONC0002411, edaravone], the “% viability” value was found to be 113.3%.
With `N#C/C(=C\c1cn(-c2ccccc2)c2ccccc12)C(=O)O` [ONC0002506, uk5099], the “% viability” value turned out to be 73.97%.
With `Cn1cnc2c1c(=O)[nH]c(=O)n2C` [ONC0003414, theobromine], the “% viability” value stood at 65.23%.
As for `CN(C)C/C=C(/c1ccc(Br)cc1)c1cccnc1` [ONC0002681, zimelidine], the “% viability” value is listed as 89.4%.
With `CCCC(=O)O[C@]1(C(=O)CCl)[C@@H](C)C[C@H]2[C@@H]3CCC4=CC(=O)C=C[C@]4(C)[C@@]3(F)C(=O)C[C@@]21C` [ONC0002193, clobetasonebutyrate], the “% viability” value was 66.83%.
The same measure for `CCOc1ccc2ccccc2c1C(=O)N[C@@H]1C(=O)N2[C@@H]1SC(C)(C)[C@@H]2C(=O)O` [ONC0000436, nafcillin sodium]: 67.04%.
With `COc1ccc(CNC(=O)/C=C/c2ccc3[nH]cc(CCN(C)C)c3c2)cc1` [ONC0000058, gr46611], the “% viability” value was 86.05%.
In the case of `CCN(CC)CCNC(=O)c1cc(Cl)c(N)cc1OC` [ONC0000475, metoclopramide hydrochloride], the “% viability” value is recorded as 87.44%.
For the compound `NCCCNCCCCNCCCN` [ONC0002015, spermine4hcl], the “% viability” value turned out to be 111.3%.
Consider `Cc1sc(C)c(C(=O)NC2(c3ccc(C(=O)O)cc3)CC2)c1Cc1ccc(C(F)(F)F)cc1` [ONC0001789, mk2894], for which the “% viability” value is reported as 103.1%.
In the case of `OCc1cccnc1` [ONC0002899, nicotinyl alcohol tartrate], the “% viability” value is listed as 107.4%.
Take `COc1cc(N2CCC(N(C)C)CC2)ccc1Nc1ncc(Cl)c(Nc2ccccc2P(C)(C)=O)n1` [ONC0004568, ap26113]: the “% viability” value was determined as 66.51%.
As for `Cc1cc(O)cc2c1O[C@@](C)(CCC[C@@H](C)CCC[C@@H](C)CCCC(C)C)CC2` [ONC0002594, ddeltatocopherol], the “% viability” value is 71.92%.
Take `COc1cc2c(Oc3ccc(NC(=O)C4(C(=O)Nc5ccc(F)cc5)CC4)cc3F)ccnc2cc1OCCCN1CCOCC1` [ONC0004599, foretinib gsk1363089 xl880]: the “% viability” value was determined as 73.52%.
